Measured values: PubChem BioAssay AID1259415 (National Center for Advancing Translational Sciences (NCATS), 2018)
Where “and” joins values, the source holds several entries; their conditions need not be identical. Equal values may be shown once. Among all 410,000 compounds or so, about 18,000 (4.4%) were called active. The shares of active, inactive and inconclusive entries below differ from those in the screen. Cut-off read from the data, not from the text of the source: active = activity change below about -60%; inconclusive = no clear call, values can overlap the other calls; inactive = above about -39%.

Test: qHTS Assay for inhibitors of the human cytomegalovirus (HCMV)
Details: HFF cells, HCMV-luciferase reporter, 72 h; at 57.5 µM; stronger effect = lower value
Summary of the method: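 Compounds were evaluated in HFFs infected with an HCMV luciferase reporter virus (MOI 1 PFU/cell). Luciferase in lysates collected 72 h post infection served as the replication measure.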
% is set by controls: 0 for no effect and ±100 for the full control effect.

Structure (SMILES) | activity change, negative = inhibition
Cc1ccsc1/C=N\NC(=O)c1n[nH]c2c1CCC2 | inactive: 41.7%
ClCC1=Nc2ccccc2Cc2ccccc21 | inconclusive: -51.9%
CCOC(=O)[C@H]1[C@H]2COc3ccc(Cl)cc3[C@@H]2N2C(=O)c3cc(C)ccc3NC(=O)[C@@]12C | inconclusive: -44.9%
Cc1ccc(S(=O)(=O)c2cnc3cc(C)nn3c2N)cc1 | inconclusive: -45.3%
COc1ccc([N+](=O)[O-])cc1NC(=O)c1cncc(Br)c1 | inconclusive: -44.5%
CCOC(=O)[C@]12Cc3c(cc(OC)c(OC)c3OC)[C@H]1N(CCC(=O)OC)C(=O)c1cc(OC)ccc12 | active: -105%
O=C1CSC(c2ccc(Cl)cc2)N1c1cccnc1 (stereo unspecified) | inconclusive: -46.7%
COc1cc(C(=O)NCc2ccc(-c3nc4ccccc4o3)cc2)cc(OC)c1OC | inconclusive: -44.8%
COc1ccc(C2=NN(C(C)=O)CC2c2cccc([N+](=O)[O-])c2)cc1 (stereo unspecified) | inconclusive: 0%
COc1ccccc1N=C1SC(C(=O)Nc2ccc(F)cc2)CC(=O)N1C (stereo unspecified) | inactive: -20.9%
CCN(C(=O)CN(C)Cc1c(F)cccc1Cl)c1c(N)n(Cc2ccccc2)c(=O)[nH]c1=O | active: -65.1%
NNC(=O)c1cc(-c2ccc(O)cc2)nc2ccc(Br)cc12 | inactive: -5.56%
O=C(O)CN1C(=O)/C(=C\c2cccc(OCc3ccccc3F)c2)SC1=S | active: -75.6%
CCCOc1ccc(N2C(=O)CC(N(Cc3ccco3)C(=O)CC)C2=O)cc1 (stereo unspecified) | inactive: -22.3%
CCOc1ccc(Cl)cc1S(=O)(=O)NCc1ccccn1 | inconclusive: -41.9%
Cc1nn(Cc2ccc(C(=O)Nc3ccccc3F)cc2)c(C)c1Cl | active: -61.8%
Cc1onc2c(=O)n(-c3ccccc3)nc(-c3ccccc3)c12 | inconclusive: -41.2%
Cc1ccc(NC(=O)CCN2C(=O)c3cccc4cccc(c34)C2=O)cc1 | inconclusive: -42.7%
CCc1nc2ccc(C(=O)NCCc3ccccn3)cn2c1N(C)CCC(C)C | inactive: -4.82%
COc1ccc(/C=N/NC(=O)CNC(=O)/C=C/c2ccccc2OC)cc1 | inconclusive: -42.3%
CCC1S/C(=N/N=C/c2ccco2)N(c2ccc(F)cc2)C1=O (stereo unspecified) | inconclusive: -56.8%
O=C(CN(C(=O)CCC(=O)Nc1ccccn1)c1ccc(F)cc1)NCc1ccco1 | inactive: -15.1%

Structure (SMILES) | activity change, negative = inhibition
CN(C)c1ccc(N=Cc2cccn2C)cc1 | inconclusive: -54.3%
COc1ccc(NC(=O)c2ccccc2[N+](=O)[O-])cc1 | inconclusive: -49.7%
S=c1[nH]c2ccccc2n1CCOc1ccccc1 | inactive: -4.42%
Cc1ccc(Cn2c(=O)n(-c3ccccc3)c(=O)c3ccc(C(=O)NCc4ccco4)cc32)cc1 | active: -95.2% and active: -60.9%
COc1ccnc(CSC(N)=Nc2cccc(C(F)(F)F)c2)c1 | inconclusive: -48.8%
Cc1ccc(CN2C(=O)c3ccccc3C2c2nnnn2-c2ccc3c(c2)OCCO3)cc1 (stereo unspecified) | inactive: -18.7%
CC(C(=O)N1CCc2ccccc21)N1CCc2ccccc2C1 (stereo unspecified) | inactive: 47%
CC(=O)C1=C(C)NC(SCC(=O)c2ccc(Cl)cc2Cl)=C(C#N)C1c1ccco1 (stereo unspecified) | active: -67.9%
c1ccc(Oc2nnc(-c3cccs3)c3ccccc23)cc1 | inconclusive: -47%
CC(=NCCC1=CCCCC1)c1c(O)n(-c2ccccc2)c(=O)[nH]c1=O | inconclusive: -47.5%
CCCN(CCC)C(=O)CSc1nc2ccsc2c(=O)n1NC(=O)c1ccccc1 | inactive: 95.4%
O=C1c2ccccc2C(=O)c2[nH]cnc21 | inactive: -26.2%
O=C(O)CNc1nc(-c2ccccc2)nc2ccccc12 | inactive: -19.1%
CC(C)Cn1c(=O)c(CCC(=O)Nc2ccc(N3CCOCC3)cc2)nc2cc(Cl)ccc21 | inactive: -4.39%
CCCCCOc1ccc(Cn2ccnc2)cc1[N+](=O)[O-] | inconclusive: -46.3%
COc1ccc(NC(=S)N2CCN(c3ccccn3)CC2)cc1 | inconclusive: -48.1%
CCOc1ccc(N2CC(NC(=O)c3ccc4ccccc4c3)CC2=O)cc1 (stereo unspecified) | inconclusive: -54.2%
Cn1nc(C(=O)OCc2ccccc2F)c2ccccc2c1=O | inconclusive: -55.1%
O=C(NCCn1cc(SCc2ccc(F)cc2)c2ccccc21)c1c(F)cccc1F | inactive: -13.7% and inactive: -21.2%
Clc1cccc(NC2=NCCS2)c1 | inactive: -13.4%
COCCn1c(SC(C)C(=O)Nc2ncc(Cl)cc2Cl)nc2ccccc21 (stereo unspecified) | active: -69.7%
CSc1ncc(Cl)c(C(=O)Nc2ccc(S(=O)(=O)N3CCC(C)CC3)cc2)n1 | active: -76.5%

Structure (SMILES) | activity change, negative = inhibition
O=C(NCCS(=O)(=O)N1CCN(c2ccc(F)cc2)CC1)C12CC3CC(CC(C3)C1)C2 | inconclusive: -45%
COc1ccc(C(=O)N[C@H](C(=O)Nc2sccc2C(N)=O)C(C)C)cc1 | inconclusive: -40.4%
CCOC(=O)[C@]12CCCC=C1N(Cc1ccccc1)C(=O)[C@H](CC(=O)NCc1ccc(C)o1)C2 | inactive: -4.87%
CCC(C)C(=O)Nc1nc(-c2ccc3c(c2)NC(=O)CO3)cs1 (stereo unspecified) | inactive: 65.7%
COc1ccc(C(=O)C2CCCN(Cc3cnc(C)s3)C2)cc1OC (stereo unspecified) | inconclusive: -45%
CCSc1nc2ccccc2n1C(=O)/C=C\c1ccc(OC)c(OC)c1 | active: -97.9%
CCOC(=O)C1(CC2CC2)CCN(C(=O)c2cc(C)nc3ccc(CC)cc23)CC1 | inactive: 1.8%
COc1nc(N2CCCCCC2)nc(N2CCCCCC2)n1 | inconclusive: -53.7%
Cn1c(=O)c2c(nc(Cc3ccccc3)n2C)n(C)c1=O | inactive: -6.77%
O=C(COc1ccc(Cl)cc1)Nc1ncc([N+](=O)[O-])s1 | active: -61.2%
CCOC(=O)c1c(N)n(-c2ccc(Cl)c(Cl)c2)c2nc3ccccc3nc12 | inconclusive: -43.9%
O=C(COC(=O)Cc1c(Cl)cccc1Cl)Nc1ccc(OC(F)(F)F)cc1 | inactive: 3.96%
CC(NC(=O)c1ccc(OC2CCN(Cc3ccccn3)CC2)cc1)c1ccccc1 (stereo unspecified) | inconclusive: -54.1%
COc1ccc(S(=O)(=O)N2CCOC23CCN(S(=O)(=O)c2cc(C)ccc2C)CC3)cc1 | inactive: 16.8%
CCS(=O)(=O)c1nc(S(=O)(=O)c2ccc(Cl)cc2)c(N2CCc3ccccc3C2)s1 | active: -72.5%
Cc1cc(C)cc(NC(=O)C2CCN(S(=O)(=O)c3ccc4c(c3)NC(=O)C(C)S4)CC2)c1 (stereo unspecified) | inconclusive: -52.7%
CCOC(=O)N1CCN(C(=O)CSc2nnc(-c3ccccc3OC)o2)CC1 | inactive: 25%
O=c1c(/C=N/O)c(Nc2ccccc2)nc2ccccn12 | inconclusive: -40.4%
CCN1C(=O)[C@H]2[C@@H](c3ccc(-c4ccc(Cl)c(Cl)c4)c(OC)c3)N[C@@](C)(C(=O)OC)[C@H]2C1=O | inactive: -10.5%
CN1CCN(CC(=O)Nc2ccc(Oc3ccccc3)cc2)CC1 | inconclusive: -49.8%
O=C(c1ccc(S(=O)(=O)N2CCCCC2)cc1)N1CCN(CCN2C(=O)c3cccc4cccc(c34)C2=O)CC1 | inconclusive: -43.7%
O=C(CCN1C(=O)/C(=C/c2ccccc2)SC1=S)N[C@@H](CO)Cc1ccccc1 | inconclusive: 0%

Three compounds out of the list, ordered by molecular weight, low to high.
Structure (SMILES) | activity change, negative = inhibition
ClCC1=Nc2ccccc2Cc2ccccc21 | inconclusive: -51.9%
CCSc1nc2ccccc2n1C(=O)/C=C\c1ccc(OC)c(OC)c1 | active: -97.9%
O=C(O)CN1C(=O)/C(=C\c2cccc(OCc3ccccc3F)c2)SC1=S | active: -75.6%

Going on with the list.

Structure (SMILES) | activity change, negative = inhibition
COc1cc(SC)ccc1C(=O)NCCOc1ccc(Cl)cc1 | inconclusive: -52.8%
CCN(CC)CCNC(=O)c1sc2nc3n(c(=O)c2c1C)CCCCC3 | inactive: -9.46%
CCOc1ccc(S(=O)(=O)N(C)c2ccc(OCC(=O)Nc3nc4ccccc4s3)cc2)cc1 | inconclusive: -47.6%
CC(C)(C)OC(=O)N1CCC(c2c(C(=O)NCc3ccc(F)cc3)cnn2-c2ccc(F)cc2)CC1 | inactive: 6.54%
CCc1ccc(NC(=O)Cn2c(=O)n(-c3cc(OC)c(OC)c(OC)c3)c(=O)c3ccccc32)cc1 | inactive: -21%
COc1ccccc1NC(=O)c1cn(-c2ccccc2)nc1-c1ccccc1 | inactive: -1.45%
Cc1ccc(-n2ncc(C(=O)Nc3cc(Cl)ccc3Cl)c2C2CCNCC2)cc1 | active: -87.2%
FC(F)(F)c1cc(-c2ccccc2)nc(N2CCOCC2)n1 | inconclusive: -40.8%
Cc1cccc(N2CCN(C(=O)C3(S(=O)(=O)c4ccc(Cl)cc4)CC3)CC2)c1C | inconclusive: -40.9%
c1cc2c(c(NCc3ccncc3)c1)CCCC2 | inactive: -25.6%
COc1cccc(-c2cc(NC=O)c3ncc(-c4ccc(C(C)=O)cc4)n3c2)c1 | active: -64.4%
c1ccc(N2CCN(c3nc(-c4ccccn4)nc4ccccc34)CC2)cc1 | active: -99.4%
O=c1cc(N2CCCCC2)c(-c2ccccc2)nn1Cc1c(Cl)cccc1Cl | inconclusive: -41.9%
O=c1[nH]c2ccccc2c2cn(-c3ccccc3)nc12 | inactive: 69.4%
COc1ccc(C2C3=C(CC(C)(C)CC3=O)Oc3ncn(CCO)c(=N)c32)cc1OC (stereo unspecified) | inactive: -30.5%
Cc1c(C(=O)N/N=C/c2cccs2)nc2ccccn12 | inconclusive: -41.8%
O=C(c1ccc2c(c1)N(Cc1cccc(Cl)c1)C(=O)c1ccccc1S2=O)N1CCN(c2cccc(C(F)(F)F)c2)CC1 (stereo unspecified) | inconclusive: -55.5%
O=C(NC1CC(=O)N(c2ccc(F)cc2)C1)c1ccc2c(c1)OCO2 (stereo unspecified) | inactive: -4.21%
Cc1ccc(NS(=O)(=O)c2ccc(NC(=O)c3cccs3)cc2)cc1 | inconclusive: -46.7%
CCC(CC)C(=O)N(C)c1c(C)nc2c(OCCOc3ccc(F)cc3)cccn12 | active: -92.1%
